Laboratory results as given in PubChem BioAssay AID316 (DTP/NCI, 2004).
The list does not hold the whole screen: it is rich in T/C values a quarter to a half above the control, in often repeated tests (any T/C) and in doses without a T/C. Further doses and runs are listed elsewhere. T/C: endpoint of the treated group in % of that of the vehicle group. Some doses have a count of surviving animals in place of a T/C: the source holds a T/C of zero for them, seemingly a mark for toxic or unscored doses. Some survivor counts are full or nearly so, which does not show that the dose was tolerated: survival well below the control is almost never listed, so the zero probably covers shortened survival too. Counts of survivors are from the toxicity check (mostly the fifth day) where no day follows; animals may have died later. Schedule codes are those of the source, taken here to give the interval after Q, in days (D) or hours (H), and the number of doses after X. Some entries were tested several times; the results are listed from low to high. Some schedule codes hold Z or #, which are not explained here. Counts like (3×) count equal records among those shown. Where survival is the endpoint, this PubChem deposit counts one and a half times the control or more as active, and values a quarter to a half above the control carry no call in these data; other NCI protocols may use other cut-offs. Some T/C values are followed by the survivors on the day toxicity was checked, most often the fifth; without a count, all were alive then.

Test system: P1534 leukemia ip, CD2F1 mice, survival T/C
Assay: NCI In Vivo Anticancer Drug Screen. Data for tumor model P1534 Leukemia (intraperitoneal) in CD2F1 (CDF1) mice
Details: T/C endpoint: mean survival time, higher T/C = longer survival
Protocol: The antitumor activity of compounds was measured in mice bearing transplantable tumors. Survival or tumor size were measured and the results are expressed as the measurement made in the treated group (T) divided by the measurement made in the vehicle treated control group (C). The tumor model used in this assay is P1534 Leukemia (intraperitoneal) in CD2F1 (CDF1) mice

[1] = dose: 300.0 micrograms/kg/injection, schedule: Q01DX015 (ip), vehicle: saline

SMILES: CC[C@]1(O)C[C@H]2CN(CCc3c([nH]c4ccccc34)[C@@](C(=O)OC)(c3cc4c(cc3OC)N(C=O)[C@H]3[C@@](O)(C(=O)OC)[C@H](OC(C)=O)[C@]5(CC)C=CCN6CC[C@]43[C@@H]65)C2)C1
- survivor count (dose: 0.06 mg/kg/injection, schedule: Q01DX010 (ip), vehicle: saline): 6 of 6
- T/C (dose: 0.09 mg/kg/injection, schedule: Q02DX008 (ip), vehicle: saline): 127 % of control
- T/C (dose: 0.1 mg/kg/injection, schedule: Q## X004 (ip), vehicle: saline): 139 % of control
- survivor count (dose: 0.12 mg/kg/injection, schedule: Q01DX010 (ip), vehicle: saline): 6 of 6
- T/C (dose: 0.16 mg/kg/injection, schedule: Q## X032 (ip), vehicle: saline, evaluated on day 45): 127 % of control
- T/C (dose: 0.16 mg/kg/injection, schedule: Q## X032 (ip), vehicle: saline, evaluated on day 46): 139 % of control
- T/C (dose: 0.25 mg/kg/injection, schedule: Q01DX001 (ip), vehicle: saline): 96 (2×), 97, 98 (3×), 102 (4×), 102 [4 of 6 alive], 103, 104, 107, 111, 112 % of control
- T/C (dose: 0.25 mg/kg/injection, schedule: Q01DX001 (ip), vehicle: water): 230, 268, 276, 283, 304 [5 of 6 alive], 322 (2×), 329 % of control
- T/C (dose: 0.5 mg/kg/injection, schedule: Q01DX001 (ip), vehicle: saline, evaluated on day 30): 93, 95, 98 (6×), 98 [5 of 6 alive], 100 (4×), 102, 103, 107 % of control
- T/C (dose: 0.5 mg/kg/injection, schedule: Q01DX001 (ip), vehicle: saline, evaluated on day 46): 246 % of control
- T/C (dose: 0.5 mg/kg/injection, schedule: Q01DX001 (ip), vehicle: water): 255, 268, 280, 297, 310, 318, 330, 341 % of control
- T/C (dose: 1.0 mg/kg/injection, schedule: Q01DX001 (ip), vehicle: saline, evaluated on day 30): 87 [4 of 6 alive], 93 (2×), 94, 96, 98 (3×), 102 (6×), 103, 106 % of control
- T/C (dose: 1.0 mg/kg/injection, schedule: Q01DX001 (ip), vehicle: saline, evaluated on day 46): 207 and 225 % of control
- T/C (dose: 1.0 mg/kg/injection, schedule: Q01DX001 (ip), vehicle: water): 247, 266, 272, 285, 289, 305, 314, 331 % of control
- survivor count (dose: 1.0 mg/kg/injection, schedule: Q02DX008 (ip), vehicle: saline): 5 of 10, 6 of 10, 9 of 10
- T/C (dose: 1.2 mg/kg/injection, schedule: Q## X004 (ip), vehicle: saline): 135 [8 of 9 alive] and 147 % of control
- survivor count (dose: 1.2 mg/kg/injection, schedule: Q## X032 (ip), vehicle: saline): 4 of 10 and 10 of 10
- survivor count (dose: 1.5 mg/kg/injection, schedule: Q02DX008 (ip), vehicle: saline): 1 of 10 and 7 of 10
- survivor count (dose: 1.8 mg/kg/injection, schedule: Q## X004 (ip), vehicle: saline): 6 of 10 and 9 of 10
- survivor count (dose: 1.8 mg/kg/injection, schedule: Q## X032 (ip), vehicle: saline): 7 of 10
- T/C (dose: 2.0 mg/kg/injection, schedule: Q01DX001 (ip), vehicle: saline, evaluated on day 30): 86 [5 of 6 alive], 90 [5 of 6 alive], 91, 97, 98, 98 [5 of 6 alive], 101 (2×), 102 [5 of 6 alive], 105 % of control
- T/C (dose: 2.0 mg/kg/injection, schedule: Q01DX001 (ip), vehicle: saline, evaluated on day 45): 141 % of control
- T/C (dose: 2.0 mg/kg/injection, schedule: Q01DX001 (ip), vehicle: saline, evaluated on day 46): 178 and 227 % of control
- survivor count (dose: 2.0 mg/kg/injection, schedule: Q01DX001 (ip), vehicle: saline): 4 of 6, 5 of 6, 6 of 6
- T/C (dose: 2.0 mg/kg/injection, schedule: Q01DX001 (ip), vehicle: water): 226, 249 [5 of 6 alive], 270, 272, 285 [5 of 6 alive], 308 [5 of 6 alive], 318, 333 % of control
- survivor count (dose: 2.7 mg/kg/injection, schedule: Q## X004 (ip), vehicle: saline): 3 of 10 and 8 of 10
- T/C (dose: 2.9 mg/kg/injection, schedule: Q01DX001 (ip), vehicle: saline): 139 % of control
- survivor count (dose: 3.0 mg/kg/injection, schedule: Q01DX001 (ip), vehicle: saline): 4 of 10
- survivor count (dose: 3.5 mg/kg/injection, schedule: Q01DX001 (ip), vehicle: saline): 2 of 10 and 5 of 10 (2×)
- survivor count (dose: 4.0 mg/kg/injection, schedule: Q01DX001 (ip), vehicle: saline): 0 of 6, 1 of 6, 2 of 10, 2 of 6, 3 of 6, 7 of 10, 5 of 6
- T/C (dose: 40.0 micrograms/kg/injection, schedule: Q01DX010 (ip), vehicle: saline, evaluated on day 45): 155 % of control
- T/C (dose: 40.0 micrograms/kg/injection, schedule: Q01DX010 (ip), vehicle: saline, evaluated on day 46): 131, 155, 184 % of control
- T/C (dose: 60.0 micrograms/kg/injection, schedule: Q01DX010 (ip), vehicle: saline, evaluated on day 45): 126 % of control
- T/C (dose: 60.0 micrograms/kg/injection, schedule: Q01DX010 (ip), vehicle: saline, evaluated on day 46): 162, 173, 223 % of control
- T/C (dose: 60.0 micrograms/kg/injection, schedule: Q01DX015 (ip), vehicle: saline): 133 % of control [9 of 10 alive]
- T/C (dose: 90.0 micrograms/kg/injection, schedule: Q01DX010 (ip), vehicle: saline, evaluated on day 45): 158 % of control
- T/C (dose: 90.0 micrograms/kg/injection, schedule: Q01DX010 (ip), vehicle: saline, evaluated on day 46): 209, 247, 251 % of control
- T/C (dose: 135.0 micrograms/kg/injection, schedule: Q01DX010 (ip), vehicle: saline, evaluated on day 45): 181 % of control
- T/C (dose: 135.0 micrograms/kg/injection, schedule: Q01DX010 (ip), vehicle: saline, evaluated on day 46): 220, 237, 258 % of control
- T/C (dose: 200.0 micrograms/kg/injection, schedule: Q01DX010 (ip), vehicle: saline, evaluated on day 45): 180 % of control
- T/C (dose: 200.0 micrograms/kg/injection, schedule: Q01DX010 (ip), vehicle: saline, evaluated on day 46): 244, 246, 298 % of control
- T/C [1]: 128 % of control [9 of 10 alive]
- survivor count [1]: 10 of 10
- survivor count (dose: 450.0 micrograms/kg/injection, schedule: Q01DX010 (ip), vehicle: saline): 6 of 10
- survivor count (dose: 450.0 micrograms/kg/injection, schedule: Q01DX015 (ip), vehicle: saline): 7 of 10
- survivor count (dose: 670.0 micrograms/kg/injection, schedule: Q01DX015 (ip), vehicle: saline): 2 of 10

SMILES: O=C(NCCCC(NC(=O)OCc1ccccc1)C(=O)NCCCCCCNCCCCCCNC(=O)C(CCCNC(=O)OCc1ccccc1)NC(=O)OCc1ccccc1)OCc1ccccc1 (stereo not drawn)
- survivor count (dose: 50.0 mg/kg/injection, schedule: Q01DX010 (ip), vehicle: saline): 6 of 6

SMILES: COc1cc2c3c(c4ccc(OC)c(OC)c4c2cc1OC)CN1CCC[C@@H]1C3
- T/C (dose: 12.5 mg/kg/injection, schedule: Q01DX010 (ip), vehicle: water): 132 % of control [5 of 6 alive]

SMILES: Cc1ccccn1
- survivor count (dose: 500.0 mg/kg/injection, schedule: Q01DX010 (ip), vehicle: saline): 3 of 6

SMILES: CO[C@@]12[C@H](COC(N)=O)C3=C(C(=O)C(C)=C(N)C3=O)N1C[C@@H]1N[C@@H]12
- T/C (dose: 0.5 mg/kg/injection, schedule: Q01DX010 (ip), vehicle: saline): 128 % of control
- T/C (dose: 1.0 mg/kg/injection, schedule: Q01DX010 (ip), vehicle: saline): 139 % of control
- survivor count (dose: 2.0 mg/kg/injection, schedule: Q01DX010 (ip), vehicle: saline): 6 of 6
- survivor count (dose: 4.0 mg/kg/injection, schedule: Q01DX010 (ip), vehicle: saline): 6 of 6
